Results are given in words; binding and its absence hold for the method and conditions named. Binding seen in cells or lysates may run through a third protein. Some entries that bind do so weakly or less than the wild type.

Chains of the proteins cited; added tags and fusions are not shown.
UniProt P42771: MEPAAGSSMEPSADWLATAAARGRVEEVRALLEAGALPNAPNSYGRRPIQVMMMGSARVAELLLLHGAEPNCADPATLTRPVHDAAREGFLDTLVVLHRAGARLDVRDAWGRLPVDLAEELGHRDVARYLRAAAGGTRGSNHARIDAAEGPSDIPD
UniProt P02730: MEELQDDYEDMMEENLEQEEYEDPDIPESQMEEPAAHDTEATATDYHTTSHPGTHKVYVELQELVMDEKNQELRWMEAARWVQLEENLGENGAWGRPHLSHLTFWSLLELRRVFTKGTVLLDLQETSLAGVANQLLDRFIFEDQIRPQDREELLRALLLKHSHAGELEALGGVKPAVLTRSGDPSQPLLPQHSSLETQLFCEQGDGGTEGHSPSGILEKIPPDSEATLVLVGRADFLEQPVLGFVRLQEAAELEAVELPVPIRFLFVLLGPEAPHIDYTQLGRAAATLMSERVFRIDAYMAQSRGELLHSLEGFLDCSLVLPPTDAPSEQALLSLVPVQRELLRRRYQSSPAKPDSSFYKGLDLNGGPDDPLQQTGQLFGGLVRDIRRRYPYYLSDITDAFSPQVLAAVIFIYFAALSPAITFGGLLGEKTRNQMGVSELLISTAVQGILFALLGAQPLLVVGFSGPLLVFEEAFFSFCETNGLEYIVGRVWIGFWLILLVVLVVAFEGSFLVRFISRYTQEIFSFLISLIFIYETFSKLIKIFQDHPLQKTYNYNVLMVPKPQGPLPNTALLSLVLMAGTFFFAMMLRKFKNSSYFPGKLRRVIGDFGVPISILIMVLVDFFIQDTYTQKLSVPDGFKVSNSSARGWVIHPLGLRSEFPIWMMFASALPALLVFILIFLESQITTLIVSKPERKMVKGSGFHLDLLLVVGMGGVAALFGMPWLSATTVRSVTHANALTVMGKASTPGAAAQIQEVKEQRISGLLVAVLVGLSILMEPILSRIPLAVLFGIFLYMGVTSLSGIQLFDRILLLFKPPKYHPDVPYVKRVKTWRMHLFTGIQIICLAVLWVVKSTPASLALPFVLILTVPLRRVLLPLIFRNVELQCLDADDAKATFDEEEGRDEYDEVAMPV

For two molecules, binding results are on record in article PMC5011918.

This test concerns the target p16 (human (endogenous in SGC7901)) (UniProt P42771). As to the kind of experiment: co-IP; SGC7901 whole-cell lysate in RIPA buffer; anti-p16 antibody overnight at 4 °C, Protein G Plus/Protein A agarose 4 h at 4 °C; immunoblot for AE1, AE2 and p16; all proteins endogenous. (In western blotting, separated proteins are transferred to a membrane and probed.)

“Anion exchanger 1 (from UniProt P02730 1-911)”: the binding entry is “binds”.

B1: Anion exchanger 2 (protein, UniProt P04920 1-1241)
chain: MSSAPRRPAKGADSFCTPEPESLGPGTPGFPEQEEDELHRTLGVERFEEILQEAGSRGGEEPGRSYGEEDFEYHRQSSHHIHHPLSTHLPPDARRRKTPQGPGRKPRRRPGASPTGETPTIEEGEEDEDEASEAEGARALTQPSPVSTPSSVQFFLQEDDSADRKAERTSPSSPAPLPHQEATPRASKGAQAGTQVEEAEAEAVAVASGTAGGDDGGASGRPLPKAQPGHRSYNLQERRRIGSMTGAEQALLPRVPTDEIEAQTLATADLDLMKSHRFEDVPGVRRHLVRKNAKGSTQSGREGREPGPTPRARPRAPHKPHEVFVELNELLLDKNQEPQWRETARWIKFEEDVEEETERWGKPHVASLSFRSLLELRRTLAHGAVLLDLDQQTLPGVAHQVVEQMVISDQIKAEDRANVLRALLLKHSHPSDEKDFSFPRNISAGSLGSLLGHHHGQGAESDPHVTEPLMGGVPETRLEVERERELPPPAPPAGITRSKSKHELKLLEKIPENAEATVVLVGCVEFLSRPTMAFVRLREAVELDAVLEVPVPVRFLFLLLGPSSANMDYHEIGRSISTLMSDKQFHEAAYLADEREDLLTAINAFLDCSVVLPPSEVQGEELLRSVAHFQRQMLKKREEQGRLLPTGAGLEPKSAQDKALLQMVEAAGAAEDDPLRRTGRPFGGLIRDVRRRYPHYLSDFRDALDPQCLAAVIFIYFAALSPAITFGGLLGEKTQDLIGVSELIMSTALQGVVFCLLGAQPLLVIGFSGPLLVFEEAFFSFCSSNHLEYLVGRVWIGFWLVFLALLMVALEGSFLVRFVSRFTQEIFAFLISLIFIYETFYKLVKIFQEHPLHGCSASNSSEVDGGENMTWAGARPTLGPGNRSLAGQSGQGKPRGQPNTALLSLVLMAGTFFIAFFLRKFKNSRFFPGRIRRVIGDFGVPIAILIMVLVDYSIEDTYTQKLSVPSGFSVTAPEKRGWVINPLGEKSPFPVWMMVASLLPAILVFILIFMETQITTLIISKKERMLQKGSGFHLDLLLIVAMGGICALFGLPWLAAATVRSVTHANALTVMSKAVAPGDKPKIQEVKEQRVTGLLVALLVGLSIVIGDLLRQIPLAVLFGIFLYMGVTSLNGIQFYERLHLLLMPPKHHPDVTYVKKVRTLRMHLFTALQLLCLALLWAVMSTAASLAFPFILILTVPLRMVVLTRIFTDREMKCLDANEAEPVFDEREGVDEYNEMPMPV
As to B1, the binding result is “binds”.
